{"sequences": {"note": "The chains behind the UniProt entries cited, without tags or fusion partners.", "UniProt Q8BG87, whole entry": "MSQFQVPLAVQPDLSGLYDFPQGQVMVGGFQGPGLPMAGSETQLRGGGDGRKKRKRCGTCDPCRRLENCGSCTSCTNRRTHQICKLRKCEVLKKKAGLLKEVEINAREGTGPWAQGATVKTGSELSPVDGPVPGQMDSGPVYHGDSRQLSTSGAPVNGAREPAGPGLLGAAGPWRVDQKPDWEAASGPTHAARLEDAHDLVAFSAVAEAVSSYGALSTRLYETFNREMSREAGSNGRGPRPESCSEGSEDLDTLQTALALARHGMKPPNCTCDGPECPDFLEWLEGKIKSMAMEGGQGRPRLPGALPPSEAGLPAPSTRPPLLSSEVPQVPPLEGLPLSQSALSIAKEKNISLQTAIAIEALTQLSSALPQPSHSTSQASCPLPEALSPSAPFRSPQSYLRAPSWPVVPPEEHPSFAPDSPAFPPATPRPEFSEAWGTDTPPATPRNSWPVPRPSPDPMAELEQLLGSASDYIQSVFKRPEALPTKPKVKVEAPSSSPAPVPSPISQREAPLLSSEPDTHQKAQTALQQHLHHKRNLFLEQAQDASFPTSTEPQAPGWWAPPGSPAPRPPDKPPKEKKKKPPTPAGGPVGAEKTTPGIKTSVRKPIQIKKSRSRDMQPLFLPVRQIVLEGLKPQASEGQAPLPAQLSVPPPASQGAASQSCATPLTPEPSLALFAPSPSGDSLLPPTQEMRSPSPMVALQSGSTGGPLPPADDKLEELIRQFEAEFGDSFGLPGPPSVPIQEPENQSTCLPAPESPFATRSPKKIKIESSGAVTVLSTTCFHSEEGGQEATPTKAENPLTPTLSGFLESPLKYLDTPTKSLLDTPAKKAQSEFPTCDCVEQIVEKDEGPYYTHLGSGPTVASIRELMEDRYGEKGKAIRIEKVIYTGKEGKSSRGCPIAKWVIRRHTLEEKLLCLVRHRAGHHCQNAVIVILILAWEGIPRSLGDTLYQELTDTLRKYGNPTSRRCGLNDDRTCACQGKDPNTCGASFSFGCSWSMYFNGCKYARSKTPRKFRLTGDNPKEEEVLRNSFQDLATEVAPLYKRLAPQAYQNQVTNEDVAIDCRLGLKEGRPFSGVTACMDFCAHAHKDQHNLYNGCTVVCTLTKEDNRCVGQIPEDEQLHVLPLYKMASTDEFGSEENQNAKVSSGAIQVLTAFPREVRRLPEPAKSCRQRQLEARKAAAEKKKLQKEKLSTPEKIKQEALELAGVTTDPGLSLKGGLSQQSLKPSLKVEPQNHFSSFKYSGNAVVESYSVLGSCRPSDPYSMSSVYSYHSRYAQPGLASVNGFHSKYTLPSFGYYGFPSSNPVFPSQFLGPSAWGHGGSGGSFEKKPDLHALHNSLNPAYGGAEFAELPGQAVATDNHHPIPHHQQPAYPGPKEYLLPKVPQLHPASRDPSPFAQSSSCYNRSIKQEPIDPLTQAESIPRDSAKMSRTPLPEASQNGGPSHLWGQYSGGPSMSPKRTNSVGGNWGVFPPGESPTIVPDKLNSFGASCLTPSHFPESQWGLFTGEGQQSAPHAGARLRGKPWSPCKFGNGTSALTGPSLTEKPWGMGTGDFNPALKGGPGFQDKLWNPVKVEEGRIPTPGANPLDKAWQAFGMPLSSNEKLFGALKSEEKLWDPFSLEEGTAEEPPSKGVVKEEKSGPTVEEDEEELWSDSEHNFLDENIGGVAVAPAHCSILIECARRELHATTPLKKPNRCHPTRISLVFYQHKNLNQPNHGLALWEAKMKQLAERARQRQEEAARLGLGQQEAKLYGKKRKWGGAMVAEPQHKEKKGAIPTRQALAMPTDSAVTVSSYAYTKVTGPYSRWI"}, "source": "paper doi:10.1101/2021.06.19.449113", "key": {"[1]": {"target": "T1, O-linked N-acetylglucosamine (O-GlcNAc) Transferase (OGT) (mouse (endogenous in mESCs)) (UniProt Q8CGY8)", "T1 sequence": "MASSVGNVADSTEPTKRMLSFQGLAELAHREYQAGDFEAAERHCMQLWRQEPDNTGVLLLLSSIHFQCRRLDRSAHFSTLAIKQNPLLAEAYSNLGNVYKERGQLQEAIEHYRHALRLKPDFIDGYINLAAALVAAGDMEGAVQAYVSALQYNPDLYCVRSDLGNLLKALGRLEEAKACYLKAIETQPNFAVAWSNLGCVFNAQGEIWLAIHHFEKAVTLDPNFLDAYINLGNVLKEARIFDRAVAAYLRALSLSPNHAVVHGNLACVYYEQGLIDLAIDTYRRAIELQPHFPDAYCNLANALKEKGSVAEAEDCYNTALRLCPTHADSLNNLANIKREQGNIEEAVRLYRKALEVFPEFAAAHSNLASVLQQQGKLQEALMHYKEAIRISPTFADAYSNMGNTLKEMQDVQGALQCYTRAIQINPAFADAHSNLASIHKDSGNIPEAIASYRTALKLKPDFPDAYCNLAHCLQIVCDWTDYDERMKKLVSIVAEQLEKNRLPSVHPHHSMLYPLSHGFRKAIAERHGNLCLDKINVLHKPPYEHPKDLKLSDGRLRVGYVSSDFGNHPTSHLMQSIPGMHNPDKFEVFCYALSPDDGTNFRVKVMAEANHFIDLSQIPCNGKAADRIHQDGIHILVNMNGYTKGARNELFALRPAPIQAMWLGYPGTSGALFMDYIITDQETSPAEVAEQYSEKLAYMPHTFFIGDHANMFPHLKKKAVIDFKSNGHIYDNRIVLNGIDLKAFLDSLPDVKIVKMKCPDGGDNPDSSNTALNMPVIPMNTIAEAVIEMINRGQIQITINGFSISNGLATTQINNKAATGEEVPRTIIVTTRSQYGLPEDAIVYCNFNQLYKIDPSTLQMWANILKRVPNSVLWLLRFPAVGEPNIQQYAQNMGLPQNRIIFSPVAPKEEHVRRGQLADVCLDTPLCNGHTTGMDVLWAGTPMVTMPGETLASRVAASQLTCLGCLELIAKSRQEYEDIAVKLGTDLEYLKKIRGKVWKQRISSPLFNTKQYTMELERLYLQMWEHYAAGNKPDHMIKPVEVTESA", "assay": "SEC"}, "[2]": {"target": "T2, OGT tagged with GFP (endogenously on both Xs) (mouse (endogenous in LF2 XX mESCs)) (UniProt Q8CGY8)", "T2 sequence": "T1 sequence", "assay": "co-IP"}}, "note": "These are yes or no findings as the source states them, for the method shown. For some assays here: In cells and extracts the contact can be indirect. Some binding calls cover weakened binding; strength is not graded here. Tags and fused reporters may be left off the sequences shown.", "data": [{"substance": "TET3 (from UniProt Q8BG87 1-1803) (enzyme)", "values": [{"measurement": "binding", "setting": "[1]", "result": "binds"}, {"measurement": "binding", "setting": "[2]", "result": "binds"}]}]}
